# Source: PubChem BioAssay AID504648 (National Center for Advancing Translational Sciences (NCATS), 2011)
# About 610 (0.16%) of roughly 390,000 compounds were called active. The shares of active, inactive and inconclusive entries below differ from those in the screen. Calls come from the whole dose curve; as a rule, active = well fitted inhibition curve with a large enough effect; inconclusive = small, poorly fitted or top-dose-only effect, or effect the other way, or another doubt; inactive = no such curve, though single readings can be large or run the other way. A potency beside an inconclusive call is a rough fit, not a confirmed value.
# Assay: Nrf2 qHTS screen for inhibitors: counterscreen for cytotoxicity
# Conditions: A549 ARE-Fluc cells, CellTiter-Fluor viability, 18-24 h; activity change, negative = cytotoxicity: at 46 µM (top of the series)
# Summary of the method: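 Cytotoxicity counterscreen: CellTiter-Fluor fluorescence was measured in A549 ARE_Fluc cells after 18-24 h of compound exposure in a concentration series. The subsequent BugLite luminescent read reports ARE-luciferase activity.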
# % is set by controls: 0 for no effect and ±100 for the full control effect; potency is the fitted concentration of half-maximal effect.
SMILES,Potency,"activity change, negative = cytotoxicity"
CCOc1c2c(c(-c3ccc4c(c3)OCO4)c3cc(OC)c(OC)cc13)C(=O)OC2,active: 2.91 µM,–
O=C(NC(=S)Nc1ccccc1N1CCCCC1)c1ccc(F)cc1,"inconclusive: 20.6 µM [activator, partial curve, poor fit]",–
Cc1ccc(-c2cccc(NC(=O)C3C(C(=O)O)[C@@H]4C=C[C@H]3C4)c2)o1 (some centres undefined),–,inactive: -10.2%
O=C(c1ccccc1)c1coc2c1C(=O)c1ccccc1C2=O,"inconclusive: 29.1 µM [falling, single point]",–
O=C1Nc2ccccc2C12Nc1ccccc1-c1nc3ccccc3n12 (centres undefined),"inconclusive: 4.61 µM [falling, partial curve, poor fit]",–
CCCOc1ccccc1C1NC(=O)NC(C)=C1C(=O)OCc1ccccc1 (centres undefined),"inconclusive: 29.1 µM [falling, single point]",–
CCCC(=O)N(C1CC(C)C(C#N)(C#N)C1(C#N)C#N)N(C)C (centres undefined),"inconclusive: 29.1 µM [falling, single point]",–
COc1ccc(-n2nc3c(N4CCC(C(=O)NCc5cccc(F)c5)CC4)nnc(C)c3c2C)cc1,"inconclusive: 29.1 µM [falling, single point]",–
O=C(Nc1ccc2nc(-c3cccs3)c(-c3cccs3)nc2c1)N1CCOCC1,"inconclusive: 25.9 µM [falling, partial curve, poor fit]",–
Cc1ccc(-c2nc3ccccc3[nH]2)cc1NC(=O)COc1ccccc1[N+](=O)[O-],"inconclusive: 32.6 µM [falling, partial curve, poor fit]",–
CCC(C)c1ccc(NC(=S)NC(C)C2CCCO2)cc1 (centres undefined),"inconclusive: 23.1 µM [activator, partial curve, poor fit]",–
O=C(Nc1nc(NC(=O)c2ccco2)n(-c2ccccc2)n1)c1ccccc1,"inconclusive: 25.9 µM [falling, single point]",–
O=C(Cn1ncc(Cl)c(Cl)c1=O)N1CCOCC1,"inconclusive: 25.9 µM [falling, single point]",–
Cc1ccc(NC(=O)CSCC(=O)NCCc2ccccc2)c(C)c1,–,inactive: -3.35%
N#C/C(=N\Nc1cccc(C(F)(F)F)c1)C(=O)c1csc(-c2cccnc2)n1,"inconclusive: 23.1 µM [falling, single point]",–
O=C(Nc1ccc(O)cc1)c1ccccc1OCc1ccccc1,–,inactive: -0.633%
CC1=NN(/C(=N\c2nnc(C)s2)Nc2ccccc2)[C@H](c2cccc3ccccc23)S1,"inconclusive: 23.1 µM [falling, single point]",–
CCc1ccc(NC(=S)NC(=O)c2c(-c3ccccc3Cl)noc2C)cc1,"inconclusive: 10.3 µM [activator, partial curve, poor fit]",–
O=C(COC(=O)c1cc([N+](=O)[O-])ccc1N1CCOCC1)Nc1cccc(F)c1,active: 4.61 µM,–
C[C@]12CC[C@H](O)CC1=CCC1C2CC[C@@]2(C)C1CC[C@@H]2NC(=O)[C@@H](N)Cc1ccccc1 (some centres undefined),"inconclusive: 32.6 µM [falling, partial curve, poor fit]",–

# Part of the list above, with bars between the fields:
SMILES | Potency | activity change, negative = cytotoxicity
N#C/C(=N\Nc1cccc(C(F)(F)F)c1)C(=O)c1csc(-c2cccnc2)n1 | inconclusive: 23.1 µM [falling, single point] | –
O=C(COC(=O)c1cc([N+](=O)[O-])ccc1N1CCOCC1)Nc1cccc(F)c1 | active: 4.61 µM | –

# Continuation:

SMILES,Potency,"activity change, negative = cytotoxicity"
CCCCCCCNC(=O)C1(CC2CC(c3ccc(Cl)cc3)=NO2)CCN(C(=O)C2(C)CC2)CC1 (centres undefined),"inconclusive: 23.1 µM [falling, partial curve, poor fit]",–
CCc1nnc2c(N3CCN(c4cccc(C)c4)C(C)C3)nc3ccccc3n12 (centres undefined),–,inactive: 5.59%
COc1cc(/C=C/c2sc3ccccc3[n+]2CCCS(=O)(=O)[O-])ccc1O,active: 11.6 µM,–
Cc1ccc(/C=N/NC(=O)CSc2nc3ccccc3c(=O)n2-c2ccccc2C)s1,"inconclusive: 23.1 µM [falling, single point]",–
O=C(N/N=C/c1cccnc1)c1cc(O)c(O)c(O)c1,"inconclusive: 18.4 µM [falling, partial curve, poor fit]",–
COC1C=COC2(C)Oc3c(C)c(O)c4c(O)c(c(CN5CCN(C)CC5)c(O)c4c3C2=O)NC(=O)C(C)=CC=CC(C)C(O)C(C)C(O)C(C)C(OC(C)=O)C1C (centres undefined),–,inactive: -16.2%
CSC1SCC2C(=O)N(C)C(C(C)C)C(=O)OCC(NC(=O)c3cnc4ccccc4n3)C(=O)NC(C)C(=O)N(C)C1C(=O)N(C)C(C(C)C)C(=O)OCC(NC(=O)c1cnc3ccccc3n1)C(=O)NC(C)C(=O)N2C (centres undefined),"inconclusive: 0.0046 µM [falling, full curve, poor fit]",–
Cc1nn(C)c2c1c(C(F)(F)F)cc(=O)n2CC(=O)NCc1ccc(OC(C)C)cc1,–,inactive: 7%
O=C(N/N=C/c1cc(Cl)cc([N+](=O)[O-])c1O)NC12CC3CC(CC(C3)C1)C2,"inconclusive: 20.6 µM [falling, single point]",–
CC(C)(C)c1ccc(CSC2=Nc3ccccc3C3=NC(CC(=O)NCc4cccs4)C(=O)N23)cc1 (centres undefined),"inconclusive: 18.4 µM [falling, single point]",–
Cc1cc(C)cc(Nc2cc(=O)n(C3CCCCC3)c(=O)[nH]2)c1,"inconclusive: 29.1 µM [falling, single point]",–
Cc1cn(C)c(CC(=O)NCc2cccc(Cl)c2)c1C(=O)O,–,inactive: 5.04%
O=C(COC(=O)CCSc1ccc(Cl)cc1)NCCc1ccccc1,"inconclusive: 29.1 µM [activator, partial curve, poor fit]",–
COc1cccc(/C=N/n2cnc3c(cnn3-c3ccccc3)c2=O)c1,–,inactive: -5.67%
CCCc1ccc(C2C3=C(CC(C)(C)CC3=O)NC3=C2C(=O)c2ccccc23)cc1 (centres undefined),"inconclusive: 8.2 µM [falling, partial curve]",–
CC(C)Cc1nc2oc3c(NCC(C)O)ncnc3c2c2c1CCCC2 (centres undefined),"inconclusive: 3.26 µM [activator, partial curve, poor fit]",–
COc1cccc(Nc2nnc(-c3cc4ccc(O)cc4oc3=O)s2)c1,"inconclusive: 6.51 µM [activator, partial curve]",–
CCOC(=O)C1=C(CN2CCN(c3ccc(Cl)cc3)CC2)NC(=O)NC1c1ccc(OC)cc1 (centres undefined),"inconclusive: 29.1 µM [falling, single point]",–
Cc1ccc(CSc2c(C)cnc3c2c(=O)n(C)c(=O)n3C)cc1,–,inactive: 5.03%
